Some of the results follow.
target: T1, OsSMF1 (Oryza sativa, UniProt Q6ZLB0 1-436); assay: protein-binding microarray (RPBM); PBS, 2% BSA, 51.3 ng/ul salmon testes DNA, 50 uM zinc acetate, 200 nM TF, 25 C, 1 h; high values mean tight binding; conditions: protein: recombinant; tags: N-terminal polyhistidine and DsRed monomer fusion (pET32a); chain copies: 2; label: CyDye5-dUTP incorporated in the synthesized complementary strand; 3' TTTTT single-stranded linker to array surface; dsDNA, one strand shown
T1 sequence: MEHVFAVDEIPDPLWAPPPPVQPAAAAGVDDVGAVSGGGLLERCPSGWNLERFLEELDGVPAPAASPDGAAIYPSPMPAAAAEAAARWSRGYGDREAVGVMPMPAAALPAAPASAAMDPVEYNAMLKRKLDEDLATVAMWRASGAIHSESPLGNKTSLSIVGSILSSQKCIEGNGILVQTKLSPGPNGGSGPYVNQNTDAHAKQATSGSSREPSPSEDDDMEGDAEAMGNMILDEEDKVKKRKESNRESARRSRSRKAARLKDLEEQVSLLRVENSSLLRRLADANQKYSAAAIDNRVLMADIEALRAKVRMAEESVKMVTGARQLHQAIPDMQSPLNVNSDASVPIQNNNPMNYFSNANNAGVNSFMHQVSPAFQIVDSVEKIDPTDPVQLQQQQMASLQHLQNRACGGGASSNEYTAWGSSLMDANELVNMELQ
In short: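 Transcription factors were made in E. coli BL21-CodonPlus as N-terminal fusions to a polyhistidine tag and DsRed, then purified on Ni–NTA. After primer extension with Cy5-dUTP and blocking with 2% BSA, a custom Agilent array was exposed for 1 h at 25 °C to 200 nM protein in PBS, 2% BSA, salmon testes DNA and 50 µM zinc acetate. Washed arrays were scanned on an Axon 4000B, and the binding signal is per-feature fluorescence intensity in arbitrary units.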

| Sequence | binding signal |
| --- | --- |
| AAAAGAAAATAAAATAGCAAAACTCTCAAAAGTAGCAATCCGGAGTCACCTAGTGCAG | 23200 fluorescence intensity (a.u.) |
| GTTCCCTTTGTATTTCACACCTTGAGATGGTGACTGATCCCGGAGTCACCTAGTGCAG | 3940 fluorescence intensity (a.u.) |
| GCTCGACCGTCGTCCGGACTCATGACGAGTGTCACACGGCCGGAGTCACCTAGTGCAG | 3910 fluorescence intensity (a.u.) |
| AACCAAACGCTAGAAATCGCTCGTCACACATCAGTCCCGGCGGAGTCACCTAGTGCAG | 4000 fluorescence intensity (a.u.) |
| CGCTTCCGCTTCCTCTCCCTCTCATCTTCCTCGGCCCCATCGGAGTCACCTAGTGCAG | 21700 fluorescence intensity (a.u.) |
| CGAGAGAAACCTATGACGTCTGTAAATACCCTCCTTATTACGGAGTCACCTAGTGCAG | 3700 fluorescence intensity (a.u.) |
| TCCGACCTCTACCATAAGACACATAAGATGATGGGGCAGACGGAGTCACCTAGTGCAG | 4050 fluorescence intensity (a.u.) |
| CAAAATGCTTTGACTGGATAGGATAAAACCATCTGGCCGCCGGAGTCACCTAGTGCAG | 3140 fluorescence intensity (a.u.) |
| GCCTAACCCTAACCCTAGCCGCCACCGCTCAACCGCCTCCCGGAGTCACCTAGTGCAG | 65100 fluorescence intensity (a.u.) |
| GCCGCGCAATGACACGCTGGCACCTGGCCACGCGCCACGTCGGAGTCACCTAGTGCAG | 9110 fluorescence intensity (a.u.) |
| TCTGTAATCATCATCTTATTATCATCAACGGATGCATTGGCGGAGTCACCTAGTGCAG | 32700 fluorescence intensity (a.u.) |
| TACTGAGTATTACTCCCTCTGTTTTAAAATGGTTGACACCCGGAGTCACCTAGTGCAG | 20700 fluorescence intensity (a.u.) |
| ATTGTTCTCACAGCTCATTACACATAGCCCGCTCGGTCATCGGAGTCACCTAGTGCAG | 3610 fluorescence intensity (a.u.) |
| CTCCCCTCCTCTCTCCTCTCCATTCCTCCTCGCTTCGACACGGAGTCACCTAGTGCAG | 21900 fluorescence intensity (a.u.) |
| TCGATTTCAGTGACGTCTCGCTCGATCTCGTCAGCTTTCCCGGAGTCACCTAGTGCAG | 4280 fluorescence intensity (a.u.) |
| TAGTTTCACTTATTATTTATTTCAGTAAAAGAAAGTTTCCCGGAGTCACCTAGTGCAG | 3690 fluorescence intensity (a.u.) |
| GCAGCAGCTGCGTTGTCATCGTCCTCGTGTGCGGCTGGCCCGGAGTCACCTAGTGCAG | 6820 fluorescence intensity (a.u.) |
| ATACAAGCACCTCCATTGCAAGTTCCCAACACATATGCTACGGAGTCACCTAGTGCAG | 3190 fluorescence intensity (a.u.) |
| GTGGATGTGATCCGCATGATTGATGTCATCATGAATATATCGGAGTCACCTAGTGCAG | 3740 fluorescence intensity (a.u.) |
| GTGAAGGCGAGACGGGGAAGAGGAGACTGCGTGGCGCCGCCGGAGTCACCTAGTGCAG | 3550 fluorescence intensity (a.u.) |
| CTTTATTAACGGTGTGGGGACTGGGGATTGGCTGAGGACGCGGAGTCACCTAGTGCAG | 3310 fluorescence intensity (a.u.) |

| Sequence | binding signal |
| --- | --- |
| TCTCTCTCTCTGTGTCAATGACAGGTGGGCCCCGTTCGTCCGGAGTCACCTAGTGCAG | 4480 fluorescence intensity (a.u.) |
| CATAGATTACGTGTAAATTACAATGCGAATCTTTTAAACCCGGAGTCACCTAGTGCAG | 8160 fluorescence intensity (a.u.) |
| GTCGTTTCACAACTCACGCGTACACCGTGTGTCCTCACCACGGAGTCACCTAGTGCAG | 3670 fluorescence intensity (a.u.) |
| CTACTCCCCAGCAATGACACGTTCTCCCAGAGAGCCAATTCGGAGTCACCTAGTGCAG | 4870 fluorescence intensity (a.u.) |
| GTGGCAAGTGCACCCACGTTAGGGCAGTCCCAACCCTCCACGGAGTCACCTAGTGCAG | 3370 fluorescence intensity (a.u.) |
| CTTTCGTACGACTCGTCATTATCACCGTGTCTCTCGTAAGCGGAGTCACCTAGTGCAG | 4540 fluorescence intensity (a.u.) |
| ACGACGACCGGGCACCATCTCCGGCCGGCCGGGCACGGGCCGGAGTCACCTAGTGCAG | 24300 fluorescence intensity (a.u.) |
| CGCACGCACACCGGCGGCGTACGTGCAATCGTGCACCACCCGGAGTCACCTAGTGCAG | 3700 fluorescence intensity (a.u.) |
| AGCACACATCTACGCTTACATGTGTATACGTATGCTTACGCGGAGTCACCTAGTGCAG | 3870 fluorescence intensity (a.u.) |
| ACTGGATCAACTGTTGACGAGATTATGAGCTATGCAATTTCGGAGTCACCTAGTGCAG | 3200 fluorescence intensity (a.u.) |
| GTGGACGATGCCTCCCTTCCTTTGACTCACCAGCTCTTGTCGGAGTCACCTAGTGCAG | 6740 fluorescence intensity (a.u.) |
| TACGCCGTTACGTGGTATGGTGTTGTGCCATTTCAGTCGGCGGAGTCACCTAGTGCAG | 3500 fluorescence intensity (a.u.) |
| AGTTTCTACTGGATTATATTGTTGTTATATTGCATCATCACGGAGTCACCTAGTGCAG | 3880 fluorescence intensity (a.u.) |
| GAGCTCGAGCAATCCGCCGTCCGTGTCGTCGTCGTCGGCGCGGAGTCACCTAGTGCAG | 3480 fluorescence intensity (a.u.) |
| ATGGTTCGTGCGGACTCGGCGTCGGTGAGGTGGGCGGGCTCGGAGTCACCTAGTGCAG | 3270 fluorescence intensity (a.u.) |
| TAGGCGTGACACTGAAGTGGCGTGCGAATCCACTTGCTCTCGGAGTCACCTAGTGCAG | 20700 fluorescence intensity (a.u.) |
| CCCCACGTCGTCATCCGCAACCCGCCTACGCTAAGCAAAACGGAGTCACCTAGTGCAG | 21600 fluorescence intensity (a.u.) |
| TTCCTTTGTAACTAGGCCAACTCAGCTTGGGTCTAGCCCACGGAGTCACCTAGTGCAG | 3460 fluorescence intensity (a.u.) |
| TTCCATGGCATCCATGTCAACGTCATATCATTTGATTGTACGGAGTCACCTAGTGCAG | 4440 fluorescence intensity (a.u.) |
| CGACCAATTACGCGCCGTACGTACGTGGAACACGGTCGAACGGAGTCACCTAGTGCAG | 5190 fluorescence intensity (a.u.) |
| TTAAATGGTGGAGAGTTGTGATTGGTTGGGAATGTGATGTCGGAGTCACCTAGTGCAG | 6030 fluorescence intensity (a.u.) |

Single values from the list:
For binding signal, TTCCATGGCATCCATGTCAACGTCATATCATTTGATTGTACGGAGTCACCTAGTGCAG is entered as 4440 fluorescence intensity (a.u.)
For binding signal, ACGACGACCGGGCACCATCTCCGGCCGGCCGGGCACGGGCCGGAGTCACCTAGTGCAG is entered as 24300 fluorescence intensity (a.u.)
